Assay results: patent US20250268898A1, “METHODS OF TREATING SYNOVIAL SARCOMA PATHOGENESIS BY SUMO2 INHIBITION” (Sanford Burnham Prebys Medical Discovery Institute, priority 2024, published 2025)

Tested on: HS-SY-II and SYO1 cells
Test: Total RNA sequencing, Compound 1 vs DMSO
Format: cell-based, human
Experimental: To comprehensively interrogate the transcriptomic changes occurring in synovial sarcoma cells, HS-SY-II and SYO1 cells were cultured in media containing DMSO and media containing Compound 1 and subjected to total RNA sequencing. HS-SY-II and SYO1 cells were contacted with either Compound 1 at concentrations of between about 25 nM and about 100 nM, or DMSO for 48 hours. The cell suspensions were pelleted, and RNA was extracted with varying concentrations. TRIzol Reagent was used to extract total RNA from SYO1, and HS-SY-II cell pellets, and strands were synthesized using Protoscript II (NEB) with poly A selection. qPCR was performed using TaqMan Gene Expression Master Mix and FAM probes for SUMO2, HPRT, and GAPDH. Paired-end (2×100 bp) sequencing was performed on the NovaSeq 6000 Sequencing System. Data Processing and QC was completed using FastQC and QC summarization was done by MultiQC. Mapping to human genome hg38 v84 was done using STAR sequence aligner, and expression was estimated using RSEM. […]
The RNA-seq reads were analyzed for each sample to the human reference genome GRCh38 using STAR aligner. […] For target genes of interest in both HS-SY-II and SYO1, a total of 960 differentially expressed target genes of interest (DEGs) were analyzed using […] (FIG. 4A).
Upregulation of target genes of interest activated by the chimeric SS18-SSX fusion protein in DMSO media and in media containing Compound 1 were mapped with size and […] (FDR) quantified, based on […] (NES) values (FIG. 4D). Expression of various target genes of interest, upregulation, and downregulation by SS18-SSX fusion genomes, were measured in contact with varying concentrations of Compound 1 (FIG. 4E). […] Enrichment scores were calculated using gene set enrichment analysis for HS-SY-II cells in contact with DMSO and varying concentrations of Compound 1 for target genes of interest (FIG. 4H). […]

[1] = additional screens, threshold |fold change|>2 and adjusted p-value<0.01

SMILES: Cc1sc(C(=O)c2cncnc2N[C@@H]2C[C@H](COS(N)(=O)=O)[C@@H](O)C2)cc1[C@@H]1NCCc2ccc(Cl)cc21 [Compound 1]
- differentially expressed target genes of interest (DEGs) (HS-SY-II and SYO1, Compound 1 about 25 nM to about 100 nM or DMSO, 48 hours): 960
- DEGs upregulated [1]: 908
- total DEGs detected [1]: 1100
